Source: the supplement of paper PMC10011410

Tests used:
U-2 OS [1] = experiment: AUC of Cytotox red (membrane-compromised) object count (AUC (object count x time)); higher = more apoptotic or dead cells
Description: (§1)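 Live-cell Incucyte imaging of U-2 OS cells with Caspase-3/7 Green and Cytotox Red reagents. Compounds were tested mostly at 5, 10 and 20 uM, and cells were imaged every 4 h for up to 60 h. Value is the area under the curve of positive object counts over time, per channel: green = caspase 3/7, red = membrane-compromised, overlap = both.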

U-2 OS [2] = experiment: AUC of caspase 3/7-positive object count (AUC (object count x time)); higher = more apoptotic or dead cells
Description: as §1

COc1ccc(/C=C/C(=O)O[C@@H]2[C@H](O[C@@H]3O[C@@H](C)[C@H](O)[C@@H](O)[C@H]3O)[C@@H](O[C@@H]3O[C@@H](C)[C@H](O[C@@H]4OC[C@@H](O[C@@H]5O[C@H](CO)[C@H](O)[C@H](O)[C@H]5O)[C@H](O)[C@H]4O)[C@@H](O)[C@H]3O)[C@H](OC(=O)[C@]34CCC(C)(C)C[C@H]3C3=CC[C@@H]5[C@@]6(C)C[C@H](O)[C@H](O[C@@H]7O[C@H](CO)[C@@H](O)[C@H](O)[C@H]7O)[C@@](C)(C(=O)O)[C@@H]6CC[C@@]5(C)[C@]3(CO)CC4)O[C@@H]2C)cc1
AUC of Cytotox red (U-2 OS [1]; 5 µM): 85.8
AUC of Cytotox red (U-2 OS [1]; 10 µM): 218
AUC of Cytotox red (U-2 OS [1]; 20 µM): 586
AUC of caspase 3/7-positive object count (U-2 OS [2]; 5 µM): 93
AUC of caspase 3/7-positive object count (U-2 OS [2]; 10 µM): 136
AUC of caspase 3/7-positive object count (U-2 OS [2]; 20 µM): 142

CN1C(=O)[C@]23CC4=CC=C[C@H](O)[C@H]4N2C(=O)[C@@]1(CO)SS3
AUC of Cytotox red (U-2 OS [1]; 5 µM): 946
AUC of Cytotox red (U-2 OS [1]; 10 µM): 819
AUC of Cytotox red (U-2 OS [1]; 20 µM): 866
AUC of caspase 3/7-positive object count (U-2 OS [2]; 5 µM): 564
AUC of caspase 3/7-positive object count (U-2 OS [2]; 10 µM): 403
AUC of caspase 3/7-positive object count (U-2 OS [2]; 20 µM): 702

O=C(OC[C@H]1O[C@@H](OC(=O)c2cc(O)c(O)c(OC(=O)c3cc(O)c(O)c(O)c3)c2)[C@H](OC(=O)c2cc(O)c(O)c(OC(=O)c3cc(O)c(O)c(O)c3)c2)[C@@H](OC(=O)c2cc(O)c(O)c(OC(=O)c3cc(O)c(O)c(O)c3)c2)[C@@H]1OC(=O)c1cc(O)c(O)c(OC(=O)c2cc(O)c(O)c(O)c2)c1)c1cc(O)c(O)c(OC(=O)c2cc(O)c(O)c(O)c2)c1
AUC of Cytotox red (U-2 OS [1]; 5 µM): 0.622
AUC of Cytotox red (U-2 OS [1]; 10 µM): 11.1
AUC of Cytotox red (U-2 OS [1]; 20 µM): -0.336
AUC of caspase 3/7-positive object count (U-2 OS [2]; 5 µM): 38.6
AUC of caspase 3/7-positive object count (U-2 OS [2]; 10 µM): 36.8
AUC of caspase 3/7-positive object count (U-2 OS [2]; 20 µM): 238

O=c1cc(N2CCOCC2)oc2c(-c3ccccc3)cccc12
AUC of Cytotox red (U-2 OS [1]; 5 µM): 47.6
AUC of Cytotox red (U-2 OS [1]; 10 µM): 72.2
AUC of Cytotox red (U-2 OS [1]; 20 µM): 69.6
AUC of caspase 3/7-positive object count (U-2 OS [2]; 5 µM): 33.2
AUC of caspase 3/7-positive object count (U-2 OS [2]; 10 µM): 71.9
AUC of caspase 3/7-positive object count (U-2 OS [2]; 20 µM): 18.6

O=C(O)C[C@@H]1C(=O)O[C@H]2[C@@H]3OC(=O)c4cc(O)c(O)c(O)c4-c4c(cc(O)c(O)c4O)C(=O)OC[C@H]2O[C@@H](OC(=O)c2cc(O)c(O)c(O)c2)[C@@H]3OC(=O)c2cc(O)c(O)c3c2[C@H]1[C@H](O)C(=O)O3
AUC of Cytotox red (U-2 OS [1]; 5 µM): -0.503
AUC of Cytotox red (U-2 OS [1]; 10 µM): 0.831
AUC of Cytotox red (U-2 OS [1]; 20 µM): -0.0443
AUC of caspase 3/7-positive object count (U-2 OS [2]; 5 µM): 43.6
AUC of caspase 3/7-positive object count (U-2 OS [2]; 10 µM): 35.7
AUC of caspase 3/7-positive object count (U-2 OS [2]; 20 µM): 37

CC(Cc1ccc(O)c(O)c1)C(C)Cc1ccc(O)c(O)c1 (centres undefined)
AUC of Cytotox red (U-2 OS [1]; 5 µM): 26.8
AUC of Cytotox red (U-2 OS [1]; 10 µM): 29.8
AUC of Cytotox red (U-2 OS [1]; 20 µM): 33
AUC of Cytotox red (U-2 OS [1]; 40 µM): 231
AUC of Cytotox red (U-2 OS [1]; 80 µM): 510
AUC of caspase 3/7-positive object count (U-2 OS [2]; 5 µM): 30.4
AUC of caspase 3/7-positive object count (U-2 OS [2]; 10 µM): 43.2
AUC of caspase 3/7-positive object count (U-2 OS [2]; 20 µM): 41.1
AUC of caspase 3/7-positive object count (U-2 OS [2]; 40 µM): 340
AUC of caspase 3/7-positive object count (U-2 OS [2]; 80 µM): 1450

C[C@@H]1O[C@@H](O[C@H]2[C@H](O[C@H]3CC[C@@]4(C)[C@@H](CC[C@]5(C)[C@@H]4CC=C4[C@@H]6CC(C)(C)CC[C@]6(C(=O)O[C@@H]6O[C@H](CO[C@@H]7O[C@H](CO)[C@@H](O[C@@H]8O[C@@H](C)[C@H](O)[C@@H](O)[C@H]8O)[C@H](O)[C@H]7O)[C@@H](O)[C@H](O)[C@H]6O)CC[C@]45C)[C@]3(C)CO)OC[C@H](O)[C@@H]2O)[C@H](O)[C@H](O)[C@H]1O
AUC of Cytotox red (U-2 OS [1]; 5 µM): 41.1
AUC of Cytotox red (U-2 OS [1]; 10 µM): 41.5
AUC of Cytotox red (U-2 OS [1]; 20 µM): 31.7
AUC of caspase 3/7-positive object count (U-2 OS [2]; 5 µM): 39.9
AUC of caspase 3/7-positive object count (U-2 OS [2]; 10 µM): 50.2
AUC of caspase 3/7-positive object count (U-2 OS [2]; 20 µM): 38.4

CC1(C)CC[C@]2(C(=O)O[C@@H]3O[C@H](CO)[C@@H](O)[C@H](O)[C@H]3O)CC[C@]3(C)C(=CC[C@@H]4[C@@]5(C)CC[C@H](O[C@@H]6O[C@H](C(=O)O)[C@@H](O)[C@H](O)[C@H]6O[C@@H]6O[C@H](CO)[C@@H](O)[C@H](O)[C@H]6O)C(C)(C)[C@@H]5CC[C@]43C)[C@@H]2C1
AUC of Cytotox red (U-2 OS [1]; 5 µM): 30.9
AUC of Cytotox red (U-2 OS [1]; 10 µM): 38.5
AUC of Cytotox red (U-2 OS [1]; 20 µM): 52.2
AUC of caspase 3/7-positive object count (U-2 OS [2]; 5 µM): 48.9
AUC of caspase 3/7-positive object count (U-2 OS [2]; 10 µM): 41.5
AUC of caspase 3/7-positive object count (U-2 OS [2]; 20 µM): 49.7

Cn1c(SC2=CS(=O)(=O)c3ccccc32)nnc1-c1ccc(O)cc1
AUC of Cytotox red (U-2 OS [1]; 5 µM): 245
AUC of Cytotox red (U-2 OS [1]; 10 µM): 328
AUC of Cytotox red (U-2 OS [1]; 20 µM): 213
AUC of caspase 3/7-positive object count (U-2 OS [2]; 5 µM): 383
AUC of caspase 3/7-positive object count (U-2 OS [2]; 10 µM): 490
AUC of caspase 3/7-positive object count (U-2 OS [2]; 20 µM): 206

O=c1c(O)c(-c2ccc(O)c(O)c2)oc2cc(O)ccc12
AUC of Cytotox red (U-2 OS [1]; 5 µM): 19.7
AUC of Cytotox red (U-2 OS [1]; 10 µM): 9.63
AUC of Cytotox red (U-2 OS [1]; 20 µM): -0.286
AUC of caspase 3/7-positive object count (U-2 OS [2]; 5 µM): 58.1
AUC of caspase 3/7-positive object count (U-2 OS [2]; 10 µM): 58.2
AUC of caspase 3/7-positive object count (U-2 OS [2]; 20 µM): 143

These are raw signals, not scaled to a control.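 Each value averages three technical replicates run on separate plates. Reagent-free control wells on every plate corrected for the cells' own fluorescence, and DMSO-treated wells served as vehicle controls. No active or hit threshold is defined for these live-cell readings.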
